The target of this assay is cynomolgus (Cyno) monkey (Macaca fascicularis) Nectin-2 (cynomolgus monkey (Macaca fascicularis)). Description: FACS titration (13.3 nM-0.02 nM) on CHO cells expressing Cyno Nectin-2.

No constants are given. Whether binding was seen depends on the method and setting. Some entries that bind do so weakly or less than the wild type.

B1: anti-Nectin-2 monoclonal antibody clone 11 (antibody, V domains shown)
VH: EVQLQQSGTVLTRPGASVKMSCKASGYIFTSYWIHWVKQRPGQGLEWIGAVYPGNSDSNYNQKFKAKAKLTAVTSTSTAYMELSSLTSEDSAVYYCTKLVGTFDYWGQGTTLTVSS
VL: DIVMTQSQKFMSSSIGDRVSVTCKASQNVGINVVWYQQRAGQSPKTLIYSASYRYSGVPDRFTGSGSGTDFTLTISNVQSEDLAEYFCQQYNTNPFTFGSGTKLEIK
For the molecule B1, the binding result was “binds”.

These data come from patent US20260116971A1.
